Data reported in PMC3667844.
Results are given in words; binding and its absence hold for the method and conditions named.

Legend:
pAS Rab3A wtΔC [1] = test: two-hybrid; Y190 co-transformed with prey (pP6 or pACT) and bait (pAS) plasmids; β-galactosidase reporter activity on replica filters with X-gal (β-gal)
pAS H-Ras wt ΔC [2] = test: as above
pAS Rab3A wtΔC [3] = test: two-hybrid; Y190 co-transformed with prey (pP6 or pACT) and bait (pAS) plasmids; growth on synthetic medium lacking leucine, tryptophan and histidine with 30 mM 3 AT (his3)
pAS H-Ras wt ΔC [4] = test: as above

Measured: binding

B1: pP6 Mint1 (aa 438–769), yeast two-hybrid clone that lacks aa 495–505 (domain or fragment, UniProt Q02410-1)
chain: ASFPTYVEVPGPCDPEDLIDGIIFAANYLGSTQLLSDKTPSKNVRMMQAQEAVSRIKAPEGESQPMTEVDLFISTQRIKVLNADTQETMMDHPLRTISYIADIGNIVVLMARRRMPRSNSQENVEASHPSQDGKRQYKMICHVFESEDAQLIAQSIGQAFSVAYQEFLRANGINPEDLSQKEYSDLLNTQDMYNDDLIHFSKSENCKDVFIEKQKGEILGVVIVESGWGSILPTVIIANMMHGGPAEKSGKLNIGDQIMSINGTSLVGLPLSTCQSIIKGLKNQSRVKLNIVRCPPVTTVLIRRPDLRYQLGFSVQNGIIC
no binding: all assays above
